Source: patent US20260124240A1, “DRUG RESISTANT IMMUNE CELLS” (The Regents of the University of California, priority 2022, published 2026)
At least one structure is not confirmed: it was looked up by name or label, or the drawing left a doubt.

How the values were obtained:
[1] = tested on: WT iPSC-derived NK and homozygous BCL2 G101V iPSC-derived NK cells; assay: Dexamethasone dose response on WT and homozygous BCL2 G101V iPSC-derived NK cells; format: cell-based, human; details: viability at 72 hours post treatment
[2] = tested on: venetoclax-resistant MOLM13 cells; assay: Incucyte 36-hour cytotoxicity assay against venetoclax-resistant MOLM13 with venetoclax; format: cell-based; details: 1.5 μM venetoclax

Row | Compound | IC50s, difference between BCL2WT/WT NK cells and BCL2G101V/G101V NK cells [1] | killing of venetoclax-resistant MOLM13 cells in the presence of venetoclax [2]
1 | C[C@@H]1C[C@H]2[C@@H]3CCC4=CC(=O)C=C[C@]4(C)[C@@]3(F)[C@@H](O)C[C@]2(C)[C@@]1(O)C(=O)CO [dexamethasone] | not significantly different | 
2 | CC1(C)CCC(CN2CCN(c3ccc(C(=O)NS(=O)(=O)c4ccc(NCC5CCOCC5)c([N+](=O)[O-])c4)c(Oc4cnc5[nH]ccc5c4)c3)CC2)=C(c2ccc(Cl)cc2)C1 [venetoclax] |  | resistant to killing
